Drawing on paper PMC11312485, this text covers binding for one substance.

The chains behind the UniProt entries cited, without tags or fusion partners.
UniProt Q12834: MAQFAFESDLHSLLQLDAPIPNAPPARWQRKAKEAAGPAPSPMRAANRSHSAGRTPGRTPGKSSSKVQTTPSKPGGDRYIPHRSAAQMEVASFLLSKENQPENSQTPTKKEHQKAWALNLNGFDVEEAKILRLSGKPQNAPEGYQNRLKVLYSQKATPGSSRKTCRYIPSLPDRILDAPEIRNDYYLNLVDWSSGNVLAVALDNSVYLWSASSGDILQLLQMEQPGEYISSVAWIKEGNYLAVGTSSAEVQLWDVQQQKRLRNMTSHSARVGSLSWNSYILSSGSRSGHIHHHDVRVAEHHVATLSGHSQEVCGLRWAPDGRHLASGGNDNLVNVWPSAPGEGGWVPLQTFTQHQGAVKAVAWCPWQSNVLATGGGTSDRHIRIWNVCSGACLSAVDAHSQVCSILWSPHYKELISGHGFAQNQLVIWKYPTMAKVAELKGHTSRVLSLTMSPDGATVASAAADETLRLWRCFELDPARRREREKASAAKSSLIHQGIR
UniProt P27694: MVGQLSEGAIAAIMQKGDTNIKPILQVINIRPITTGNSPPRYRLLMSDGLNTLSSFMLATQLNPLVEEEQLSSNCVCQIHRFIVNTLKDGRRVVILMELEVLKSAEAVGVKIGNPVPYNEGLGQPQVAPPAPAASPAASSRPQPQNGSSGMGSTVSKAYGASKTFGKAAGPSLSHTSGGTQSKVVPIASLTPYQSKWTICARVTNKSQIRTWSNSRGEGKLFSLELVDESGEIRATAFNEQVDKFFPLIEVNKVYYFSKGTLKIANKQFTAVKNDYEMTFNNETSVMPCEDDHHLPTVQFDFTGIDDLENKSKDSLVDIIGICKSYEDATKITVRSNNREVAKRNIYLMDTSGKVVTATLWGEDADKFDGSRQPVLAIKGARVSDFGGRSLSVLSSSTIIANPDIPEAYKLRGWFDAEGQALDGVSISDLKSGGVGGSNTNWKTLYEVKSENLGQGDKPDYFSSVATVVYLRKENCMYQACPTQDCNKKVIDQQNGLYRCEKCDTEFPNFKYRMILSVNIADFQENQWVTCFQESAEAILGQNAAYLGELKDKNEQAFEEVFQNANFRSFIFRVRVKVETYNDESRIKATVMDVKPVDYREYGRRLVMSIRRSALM

No constants are given. Whether binding was seen depends on the method and setting. In cells and extracts the contact can be indirect. These calls come from enrichment with a bait or labelling near it, and not all partners need be listed.

The target in the assay is Cell division cycle 20 (CDC20) (human (endogenous in KYSE450 and KYSE200)) (UniProt Q12834). Description: affinity purification with mass spectrometry; KYSE450 cells treated with 5 Gy X-ray; whole-cell lysate immunoprecipitated with CDC20 antibody, eluate separated by SDS-PAGE, bands digested and analysed by LC-MS/MS.

Take RPA1 (from UniProt P27694 1-616): the binding result is on record as “binds”.
